Source: PMC8875111
Results are given in words; binding and its absence hold for the method and conditions named. Binding seen in cells or lysates may run through a third protein. Some results given as binding are weak or reduced against the parent protein; the word gives no strength. Sequences can lack the tags named with a protein.

The chains behind the UniProt entries cited, without tags or fusion partners.
UniProt P49841: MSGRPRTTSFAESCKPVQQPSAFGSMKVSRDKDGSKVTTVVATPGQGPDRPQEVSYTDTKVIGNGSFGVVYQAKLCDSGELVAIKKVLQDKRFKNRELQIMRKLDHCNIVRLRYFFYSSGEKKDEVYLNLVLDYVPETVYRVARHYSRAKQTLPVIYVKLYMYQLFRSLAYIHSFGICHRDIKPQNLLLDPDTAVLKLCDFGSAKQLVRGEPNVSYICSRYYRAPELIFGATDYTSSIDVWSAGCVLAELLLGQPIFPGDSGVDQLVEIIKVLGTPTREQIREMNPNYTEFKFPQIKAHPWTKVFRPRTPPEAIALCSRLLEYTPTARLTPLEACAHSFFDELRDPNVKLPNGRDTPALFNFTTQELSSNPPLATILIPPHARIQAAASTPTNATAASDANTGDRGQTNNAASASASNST

Biological target: T1, IBtkα-FLAG (UniProt Q9P2D0)
T1 sequence: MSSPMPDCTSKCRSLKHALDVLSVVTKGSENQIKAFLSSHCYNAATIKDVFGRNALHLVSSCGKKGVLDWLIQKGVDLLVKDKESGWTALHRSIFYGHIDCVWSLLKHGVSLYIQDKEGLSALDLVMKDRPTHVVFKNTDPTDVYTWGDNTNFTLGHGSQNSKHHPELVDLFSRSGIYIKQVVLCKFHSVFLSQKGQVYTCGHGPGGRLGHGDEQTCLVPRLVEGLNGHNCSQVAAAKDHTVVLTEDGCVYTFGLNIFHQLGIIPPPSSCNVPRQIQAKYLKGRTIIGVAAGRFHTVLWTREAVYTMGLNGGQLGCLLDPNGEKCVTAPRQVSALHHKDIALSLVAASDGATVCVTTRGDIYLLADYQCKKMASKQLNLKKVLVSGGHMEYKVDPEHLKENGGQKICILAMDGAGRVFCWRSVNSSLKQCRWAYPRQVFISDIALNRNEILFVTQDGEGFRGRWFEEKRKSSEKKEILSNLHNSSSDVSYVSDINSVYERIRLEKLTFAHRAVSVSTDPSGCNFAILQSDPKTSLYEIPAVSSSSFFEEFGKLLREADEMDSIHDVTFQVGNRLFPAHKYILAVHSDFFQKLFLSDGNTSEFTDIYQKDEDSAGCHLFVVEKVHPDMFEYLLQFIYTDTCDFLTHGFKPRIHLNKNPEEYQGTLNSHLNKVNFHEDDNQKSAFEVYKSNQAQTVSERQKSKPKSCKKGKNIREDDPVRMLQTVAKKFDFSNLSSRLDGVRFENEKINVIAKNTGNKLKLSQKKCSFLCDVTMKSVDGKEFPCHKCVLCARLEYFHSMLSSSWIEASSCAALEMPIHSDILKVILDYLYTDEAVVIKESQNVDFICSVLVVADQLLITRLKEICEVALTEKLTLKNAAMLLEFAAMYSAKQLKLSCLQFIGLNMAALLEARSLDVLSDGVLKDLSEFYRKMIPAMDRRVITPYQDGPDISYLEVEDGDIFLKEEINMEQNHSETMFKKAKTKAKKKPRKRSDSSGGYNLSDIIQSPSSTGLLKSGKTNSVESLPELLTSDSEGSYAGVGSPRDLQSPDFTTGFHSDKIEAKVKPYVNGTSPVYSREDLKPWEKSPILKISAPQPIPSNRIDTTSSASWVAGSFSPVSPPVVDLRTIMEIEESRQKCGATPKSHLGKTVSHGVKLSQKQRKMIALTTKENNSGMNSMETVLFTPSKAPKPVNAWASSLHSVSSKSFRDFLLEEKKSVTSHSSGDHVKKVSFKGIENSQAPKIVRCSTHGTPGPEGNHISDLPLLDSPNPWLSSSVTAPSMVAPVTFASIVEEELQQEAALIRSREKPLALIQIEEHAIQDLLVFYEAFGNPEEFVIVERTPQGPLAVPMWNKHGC
Assay: co-IP; HEK293T cells transfected with pCMV6-IBtkα-FLAG or empty pCMV6, treated with MG132 (20 uM, 4 h); lysed in RIPA buffer (50 mM Tris-HCl pH 8.0, 150 mM NaCl, 1 mM EDTA, 1% Igepal, 0.5% sodium deoxycholate); anti-FLAG antibody on protein G beads; Western blot with anti-FLAG and anti-GSK3β

“glycogen synthase kinase 3 β (GSK3β) (from UniProt P49841 1-420)” was tested, and the binding was “binds”.
